Data taken from the supplement of paper PMC6411743.
± gives the standard deviation of the averaged measurements. The entries are a selection whose mix differs from that of the whole data set. Most entries show no effect beyond the scatter of the controls.

The chains behind the UniProt entries cited, without tags or fusion partners. Where a name states a change or a piece, a line headed by the entry shows the natural chain unless it says otherwise.
UniProt Q9UJX3, whole entry: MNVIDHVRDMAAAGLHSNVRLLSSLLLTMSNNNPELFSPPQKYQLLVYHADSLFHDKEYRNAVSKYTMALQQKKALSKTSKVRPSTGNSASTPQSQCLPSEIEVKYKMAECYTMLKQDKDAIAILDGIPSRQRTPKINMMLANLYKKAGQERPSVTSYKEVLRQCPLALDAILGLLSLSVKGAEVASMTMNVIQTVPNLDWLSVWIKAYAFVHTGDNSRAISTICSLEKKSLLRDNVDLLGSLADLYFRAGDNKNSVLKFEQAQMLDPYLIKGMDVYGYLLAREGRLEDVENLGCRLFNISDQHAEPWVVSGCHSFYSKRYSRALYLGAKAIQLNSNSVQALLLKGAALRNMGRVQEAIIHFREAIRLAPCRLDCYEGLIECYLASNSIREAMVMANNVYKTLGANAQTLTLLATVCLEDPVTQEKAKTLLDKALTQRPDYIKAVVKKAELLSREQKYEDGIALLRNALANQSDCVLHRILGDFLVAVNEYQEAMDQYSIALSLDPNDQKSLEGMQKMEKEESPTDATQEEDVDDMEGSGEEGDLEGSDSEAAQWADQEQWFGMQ
UniProt Q9ULF5: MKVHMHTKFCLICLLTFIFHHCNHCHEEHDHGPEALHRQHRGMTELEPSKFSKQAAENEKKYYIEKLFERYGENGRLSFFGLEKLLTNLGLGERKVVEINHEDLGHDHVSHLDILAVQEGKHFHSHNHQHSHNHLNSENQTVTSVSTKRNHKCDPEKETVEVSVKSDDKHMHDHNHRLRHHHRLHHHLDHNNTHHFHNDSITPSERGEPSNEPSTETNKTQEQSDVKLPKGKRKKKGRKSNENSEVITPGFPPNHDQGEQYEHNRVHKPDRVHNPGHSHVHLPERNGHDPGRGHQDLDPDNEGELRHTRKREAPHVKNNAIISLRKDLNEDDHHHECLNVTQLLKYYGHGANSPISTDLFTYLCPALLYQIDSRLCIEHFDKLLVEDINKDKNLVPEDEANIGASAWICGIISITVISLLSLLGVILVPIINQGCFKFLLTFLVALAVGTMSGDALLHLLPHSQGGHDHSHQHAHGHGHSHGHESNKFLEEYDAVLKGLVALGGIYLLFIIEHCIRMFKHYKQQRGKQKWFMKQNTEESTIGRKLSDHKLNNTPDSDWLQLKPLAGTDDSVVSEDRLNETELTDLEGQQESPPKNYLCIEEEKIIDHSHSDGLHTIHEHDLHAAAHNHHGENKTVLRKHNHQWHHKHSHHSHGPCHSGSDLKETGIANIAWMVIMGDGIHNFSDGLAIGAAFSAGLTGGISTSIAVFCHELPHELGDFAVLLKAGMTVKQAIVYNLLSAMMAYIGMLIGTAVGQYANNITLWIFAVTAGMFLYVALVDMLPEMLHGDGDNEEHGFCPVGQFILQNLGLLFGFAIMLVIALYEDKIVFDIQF
UniProt Q9UJ70, whole entry: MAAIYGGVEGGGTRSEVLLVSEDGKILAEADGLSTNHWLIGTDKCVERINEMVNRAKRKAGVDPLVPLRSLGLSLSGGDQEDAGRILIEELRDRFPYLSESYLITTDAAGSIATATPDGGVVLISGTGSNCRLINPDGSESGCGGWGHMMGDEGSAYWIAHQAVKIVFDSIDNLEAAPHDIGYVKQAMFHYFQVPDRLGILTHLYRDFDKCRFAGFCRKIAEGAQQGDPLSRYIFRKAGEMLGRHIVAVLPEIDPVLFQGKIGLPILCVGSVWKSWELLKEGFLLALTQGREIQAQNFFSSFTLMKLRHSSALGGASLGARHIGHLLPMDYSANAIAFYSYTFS
UniProt Q9ULK6: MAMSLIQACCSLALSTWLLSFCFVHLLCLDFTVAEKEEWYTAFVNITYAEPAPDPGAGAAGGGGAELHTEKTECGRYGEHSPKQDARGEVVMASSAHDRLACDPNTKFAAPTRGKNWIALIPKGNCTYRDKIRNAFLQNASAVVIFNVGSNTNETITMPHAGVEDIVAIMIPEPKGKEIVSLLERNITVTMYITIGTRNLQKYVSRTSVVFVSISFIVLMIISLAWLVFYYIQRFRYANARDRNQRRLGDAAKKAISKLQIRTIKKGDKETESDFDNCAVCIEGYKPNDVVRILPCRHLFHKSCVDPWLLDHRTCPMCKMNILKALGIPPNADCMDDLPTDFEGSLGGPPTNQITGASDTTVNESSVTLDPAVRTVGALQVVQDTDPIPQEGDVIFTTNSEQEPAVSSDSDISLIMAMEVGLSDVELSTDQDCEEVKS
UniProt Q9UNF0: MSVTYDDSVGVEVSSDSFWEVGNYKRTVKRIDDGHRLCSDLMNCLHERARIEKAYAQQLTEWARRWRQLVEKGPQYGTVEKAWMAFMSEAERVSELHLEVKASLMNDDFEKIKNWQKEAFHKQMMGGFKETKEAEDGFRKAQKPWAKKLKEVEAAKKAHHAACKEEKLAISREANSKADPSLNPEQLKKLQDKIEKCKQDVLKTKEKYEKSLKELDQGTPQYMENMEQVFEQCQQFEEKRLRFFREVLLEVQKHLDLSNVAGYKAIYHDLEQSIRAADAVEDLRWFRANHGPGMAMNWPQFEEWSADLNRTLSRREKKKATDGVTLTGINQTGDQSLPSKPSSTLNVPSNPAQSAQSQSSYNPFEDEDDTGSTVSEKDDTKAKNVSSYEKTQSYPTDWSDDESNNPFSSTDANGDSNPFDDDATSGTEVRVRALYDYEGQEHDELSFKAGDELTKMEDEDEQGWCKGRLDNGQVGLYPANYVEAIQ
UniProt Q9UL63, whole entry: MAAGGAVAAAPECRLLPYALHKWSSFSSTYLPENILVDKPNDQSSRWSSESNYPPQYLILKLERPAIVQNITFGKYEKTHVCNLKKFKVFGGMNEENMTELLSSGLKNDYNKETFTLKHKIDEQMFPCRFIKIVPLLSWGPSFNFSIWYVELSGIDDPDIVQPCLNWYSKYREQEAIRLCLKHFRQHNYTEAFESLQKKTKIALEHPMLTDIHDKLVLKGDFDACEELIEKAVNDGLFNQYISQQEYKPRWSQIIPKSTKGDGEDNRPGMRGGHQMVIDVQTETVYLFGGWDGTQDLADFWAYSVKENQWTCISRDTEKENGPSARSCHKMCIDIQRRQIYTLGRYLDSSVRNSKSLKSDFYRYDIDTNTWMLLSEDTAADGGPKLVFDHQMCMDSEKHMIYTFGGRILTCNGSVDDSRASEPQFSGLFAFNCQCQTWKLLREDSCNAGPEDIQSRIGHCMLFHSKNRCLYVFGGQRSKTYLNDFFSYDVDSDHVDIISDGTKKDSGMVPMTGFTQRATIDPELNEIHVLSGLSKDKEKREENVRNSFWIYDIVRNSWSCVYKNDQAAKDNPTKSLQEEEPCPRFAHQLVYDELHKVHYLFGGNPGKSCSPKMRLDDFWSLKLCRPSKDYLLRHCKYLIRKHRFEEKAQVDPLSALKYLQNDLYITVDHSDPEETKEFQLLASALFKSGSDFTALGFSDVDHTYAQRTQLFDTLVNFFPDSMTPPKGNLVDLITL
UniProt Q9UDY8: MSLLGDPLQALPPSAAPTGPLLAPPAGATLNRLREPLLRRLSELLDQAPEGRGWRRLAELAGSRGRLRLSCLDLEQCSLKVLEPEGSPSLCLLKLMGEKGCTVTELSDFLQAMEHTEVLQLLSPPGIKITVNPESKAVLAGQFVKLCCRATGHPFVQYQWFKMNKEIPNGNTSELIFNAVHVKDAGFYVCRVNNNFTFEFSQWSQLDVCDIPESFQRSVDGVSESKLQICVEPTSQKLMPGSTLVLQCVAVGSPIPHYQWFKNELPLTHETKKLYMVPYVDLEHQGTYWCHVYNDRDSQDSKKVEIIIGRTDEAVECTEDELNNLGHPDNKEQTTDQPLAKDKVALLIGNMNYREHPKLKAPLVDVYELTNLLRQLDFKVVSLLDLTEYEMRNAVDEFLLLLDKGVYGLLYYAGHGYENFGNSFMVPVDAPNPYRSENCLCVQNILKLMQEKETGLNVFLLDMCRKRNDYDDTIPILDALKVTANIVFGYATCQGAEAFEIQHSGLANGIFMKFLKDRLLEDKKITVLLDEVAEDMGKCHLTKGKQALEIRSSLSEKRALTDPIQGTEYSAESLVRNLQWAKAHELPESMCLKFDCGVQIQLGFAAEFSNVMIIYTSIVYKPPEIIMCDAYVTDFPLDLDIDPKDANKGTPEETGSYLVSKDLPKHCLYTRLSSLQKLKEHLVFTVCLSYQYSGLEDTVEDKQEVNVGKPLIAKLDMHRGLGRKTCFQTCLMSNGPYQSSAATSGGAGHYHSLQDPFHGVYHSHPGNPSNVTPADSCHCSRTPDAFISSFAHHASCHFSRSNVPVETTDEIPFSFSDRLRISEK
UniProt Q9UL15: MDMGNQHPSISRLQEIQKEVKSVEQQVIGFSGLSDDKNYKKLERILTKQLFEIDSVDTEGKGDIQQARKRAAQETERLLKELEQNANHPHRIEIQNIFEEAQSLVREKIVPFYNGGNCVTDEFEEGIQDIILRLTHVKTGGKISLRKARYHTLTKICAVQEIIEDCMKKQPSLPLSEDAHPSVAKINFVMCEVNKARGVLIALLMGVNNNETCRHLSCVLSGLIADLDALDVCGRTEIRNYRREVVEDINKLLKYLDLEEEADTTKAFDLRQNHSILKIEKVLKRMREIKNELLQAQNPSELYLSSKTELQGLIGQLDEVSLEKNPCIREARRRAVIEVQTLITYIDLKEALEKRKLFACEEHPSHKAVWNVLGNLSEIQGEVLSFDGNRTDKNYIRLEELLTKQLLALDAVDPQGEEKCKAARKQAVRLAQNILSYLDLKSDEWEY
UniProt Q9Y281, whole entry: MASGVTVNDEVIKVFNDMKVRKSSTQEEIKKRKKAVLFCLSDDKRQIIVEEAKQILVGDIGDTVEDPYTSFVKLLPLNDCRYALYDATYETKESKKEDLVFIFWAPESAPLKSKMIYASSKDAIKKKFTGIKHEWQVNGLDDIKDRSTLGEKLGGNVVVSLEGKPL
UniProt Q9UKX7: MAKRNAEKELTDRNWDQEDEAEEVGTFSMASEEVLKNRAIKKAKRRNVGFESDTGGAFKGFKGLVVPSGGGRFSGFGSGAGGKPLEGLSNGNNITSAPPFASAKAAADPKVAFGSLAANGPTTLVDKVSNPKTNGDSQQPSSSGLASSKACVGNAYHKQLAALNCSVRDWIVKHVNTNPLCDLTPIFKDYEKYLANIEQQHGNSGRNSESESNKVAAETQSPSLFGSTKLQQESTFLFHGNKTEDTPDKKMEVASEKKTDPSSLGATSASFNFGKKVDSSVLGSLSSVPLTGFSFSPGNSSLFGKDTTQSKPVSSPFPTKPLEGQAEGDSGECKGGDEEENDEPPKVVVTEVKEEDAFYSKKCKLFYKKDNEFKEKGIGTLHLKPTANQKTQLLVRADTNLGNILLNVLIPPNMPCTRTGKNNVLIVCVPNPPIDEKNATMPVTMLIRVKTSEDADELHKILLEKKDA
UniProt Q9Y312: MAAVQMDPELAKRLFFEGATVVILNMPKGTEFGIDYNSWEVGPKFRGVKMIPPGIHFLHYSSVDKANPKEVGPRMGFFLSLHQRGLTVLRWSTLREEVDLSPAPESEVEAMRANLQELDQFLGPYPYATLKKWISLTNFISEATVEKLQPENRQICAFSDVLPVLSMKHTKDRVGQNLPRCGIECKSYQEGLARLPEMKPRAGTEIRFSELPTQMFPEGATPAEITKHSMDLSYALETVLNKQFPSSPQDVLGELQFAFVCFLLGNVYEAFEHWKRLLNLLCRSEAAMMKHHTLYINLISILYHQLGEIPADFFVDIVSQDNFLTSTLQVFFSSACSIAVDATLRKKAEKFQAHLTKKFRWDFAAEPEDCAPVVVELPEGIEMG
UniProt Q9Y3D6: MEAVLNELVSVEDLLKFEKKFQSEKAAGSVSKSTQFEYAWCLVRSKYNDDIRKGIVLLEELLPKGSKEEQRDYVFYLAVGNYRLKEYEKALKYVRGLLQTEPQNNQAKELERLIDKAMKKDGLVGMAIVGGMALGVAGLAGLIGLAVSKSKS
UniProt Q9ULW0, whole entry: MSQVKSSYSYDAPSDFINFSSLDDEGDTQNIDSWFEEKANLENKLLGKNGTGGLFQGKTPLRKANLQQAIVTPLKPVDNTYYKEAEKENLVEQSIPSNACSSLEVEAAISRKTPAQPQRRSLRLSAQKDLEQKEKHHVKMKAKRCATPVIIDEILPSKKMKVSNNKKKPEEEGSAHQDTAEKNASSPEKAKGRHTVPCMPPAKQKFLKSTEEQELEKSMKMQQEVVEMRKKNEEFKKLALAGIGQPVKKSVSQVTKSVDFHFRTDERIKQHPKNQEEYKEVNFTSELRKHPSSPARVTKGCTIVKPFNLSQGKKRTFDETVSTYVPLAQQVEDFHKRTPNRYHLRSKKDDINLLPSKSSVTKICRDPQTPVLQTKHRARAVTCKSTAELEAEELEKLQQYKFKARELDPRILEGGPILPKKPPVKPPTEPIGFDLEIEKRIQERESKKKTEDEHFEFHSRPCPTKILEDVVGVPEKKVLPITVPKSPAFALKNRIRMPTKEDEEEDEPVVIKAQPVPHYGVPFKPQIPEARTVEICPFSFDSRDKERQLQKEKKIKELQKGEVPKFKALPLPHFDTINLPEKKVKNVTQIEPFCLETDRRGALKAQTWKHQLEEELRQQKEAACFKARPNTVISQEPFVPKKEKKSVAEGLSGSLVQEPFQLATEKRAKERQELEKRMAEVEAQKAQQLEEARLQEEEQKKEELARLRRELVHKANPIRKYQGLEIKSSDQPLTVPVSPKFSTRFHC

Compound: Nc1ncnc2c1ncn2[C@@H]1O[C@H](COP(=O)(O)OP(=O)(O)NP(=O)(O)O)[C@@H](O)[C@H]1O [adenylyl imidodiphosphate]
Assay: NP40-soluble protein abundance relative to vehicle (solubility fold change) (ratio); higher = more soluble protein in presence of AMP-PNP
Procedure, shortened: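 Eight concentrations, 0.1 to 10 mM, were tested on Jurkat crude lysate for 10 min at room temperature and then 3 min at 37 °C, in three independent experiments. The lysate was solubilised with 0.8% NP40 and benzonase, ultracentrifuged, and the supernatant TMT-labelled for LC-MS/MS. Each value is the fold change against the detergent-processed vehicle in its own replicate, from vsn-normalised intensities.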

Target	NP40-soluble protein abundance (concentration: 0.1mM)	NP40-soluble protein abundance (concentration: 0.5mM)
AP4E1 (UniProt Q9UPM8)	1.01 ± 0.043	0.994 ± 0.023
RAB23 (UniProt Q9ULC3)	0.996 ± 0.028	0.97 ± 0.024
UniProt Q9UG22	1.01 ± 0.037	1.01 ± 0.051
UniProt Q9UGU0 and related entries	0.984 ± 0.043	0.998 ± 0.048
UniProt Q9UDY2 and related entries	1.02 ± 0.011	1.01 ± 0.055
RRP15 (UniProt Q9Y3B9)	0.979 ± 0.025	0.994 ± 0.036
UniProt Q9Y2H6 and related entries	0.983 ± 0.026	0.993 ± 0.035
ANAPC7 (UniProt Q9UJX3)	1.02 ± 0.035	1.02 ± 0.012
UniProt Q9Y3C4 and related entries	1 ± 0.075	1.02 ± 0.058
UniProt Q9UKV8	0.987 ± 0.015	0.98 ± 0.021
DCTN4 (UniProt Q9UJW0)	0.99 ± 0.023	0.995 ± 0.026
UniProt Q9Y2I8 and related entries	1 ± 0.015	1 ± 0.019
UniProt Q9UQ49 and related entries	0.989 ± 0.019	1 ± 0.0049
UniProt Q9Y3B4	1.06 ± 0.061	0.982 ± 0.053
WARS2 (UniProt Q9UGM6)	1 ± 0.024	1 ± 0.027
TMED5 (UniProt Q9Y3A6)	0.985 ± 0.018	0.965 ± 0.02
YARS2 (UniProt Q9Y2Z4)	1.01 ± 0.04	0.97 ± 0.076
UniProt Q9UGR2 and related entries	0.9965 ± 0.0073	0.979 ± 0.024
UniProt Q9Y232 and related entries	0.979 ± 0.072	0.969 ± 0.053
UniProt Q9UKT4 and related entries	0.996 ± 0.069	0.976 ± 0.051
UniProt Q9Y2Q0 and related entries	0.991 ± 0.022	0.9814 ± 0.0087
UniProt Q9UH03 and related entries	0.974 ± 0.027	0.98 ± 0.015
SLC39A10 (UniProt Q9ULF5)	0.963 ± 0.022	0.971 ± 0.053
NAGK (UniProt Q9UJ70)	1.03 ± 0.045	0.9974 ± 0.0024
POLR3K (UniProt Q9Y2Y1)	0.994 ± 0.021	0.9949 ± 0.0051
UniProt Q9ULK6 and related entries	1.04 ± 0.11	1.016 ± 0.008

18 entries from above, as comma-separated lines:
Target,NP40-soluble protein abundance (concentration: 0.1mM),NP40-soluble protein abundance (concentration: 0.5mM)
AP4E1 (UniProt Q9UPM8),1.01 ± 0.043,0.994 ± 0.023
UniProt Q9UGU0 and related entries,0.984 ± 0.043,0.998 ± 0.048
RRP15 (UniProt Q9Y3B9),0.979 ± 0.025,0.994 ± 0.036
UniProt Q9Y2H6 and related entries,0.983 ± 0.026,0.993 ± 0.035
ANAPC7 (UniProt Q9UJX3),1.02 ± 0.035,1.02 ± 0.012
UniProt Q9Y3C4 and related entries,1 ± 0.075,1.02 ± 0.058
DCTN4 (UniProt Q9UJW0),0.99 ± 0.023,0.995 ± 0.026
UniProt Q9UQ49 and related entries,0.989 ± 0.019,1 ± 0.0049
UniProt Q9Y3B4,1.06 ± 0.061,0.982 ± 0.053
WARS2 (UniProt Q9UGM6),1 ± 0.024,1 ± 0.027
TMED5 (UniProt Q9Y3A6),0.985 ± 0.018,0.965 ± 0.02
YARS2 (UniProt Q9Y2Z4),1.01 ± 0.04,0.97 ± 0.076
UniProt Q9UGR2 and related entries,0.9965 ± 0.0073,0.979 ± 0.024
UniProt Q9Y232 and related entries,0.979 ± 0.072,0.969 ± 0.053
UniProt Q9Y2Q0 and related entries,0.991 ± 0.022,0.9814 ± 0.0087
UniProt Q9UH03 and related entries,0.974 ± 0.027,0.98 ± 0.015
SLC39A10 (UniProt Q9ULF5),0.963 ± 0.022,0.971 ± 0.053
UniProt Q9ULK6 and related entries,1.04 ± 0.11,1.016 ± 0.008

Additional entries

Target	NP40-soluble protein abundance (concentration: 0.1mM)	NP40-soluble protein abundance (concentration: 0.5mM)
ZHX1 (UniProt Q9UKY1)	0.996 ± 0.02	1.02 ± 0.041
UniProt Q9UJX6 and related entries	1.03 ± 0.044	0.978 ± 0.043
UniProt Q9UGJ1 and related entries	1.05 ± 0.073	1.03 ± 0.07
SMC3 (UniProt Q9UQE7)	1 ± 0.028	1.02 ± 0.045
RUVBL1 (UniProt Q9Y265)	1.04 ± 0.04	1.05 ± 0.036
UniProt Q9UNF0 and related entries	1.01 ± 0.032	1.03 ± 0.061
UniProt Q9UIB8 and related entries	0.9731 ± 0.0057	0.953 ± 0.02
UniProt Q9UL12 and related entries	1.01 ± 0.024	0.9924 ± 0.0031
UniProt Q9ULC4 and related entries	1.01 ± 0.019	0.998 ± 0.032
UniProt Q9Y2Z2 and related entries	0.9764 ± 0.0053	0.9619 ± 0.006
UniProt Q9Y3D0	0.99 ± 0.047	1 ± 0.048
ZMYM2 (UniProt Q9UBW7)	0.985 ± 0.025	0.962 ± 0.016
UniProt Q9UKI8-5|Q9UKI8	0.959 ± 0.031	0.99 ± 0.03
UniProt Q9UIS9 and related entries	0.9993 ± 0.006	1.02 ± 0.029
UniProt Q9UL63 and related entries	1 ± 0.066	0.987 ± 0.065
UniProt Q9Y3D8 and related entries	1.016 ± 0.0039	1.02 ± 0.015
UFC1 (UniProt Q9Y3C8)	0.996 ± 0.048	1.05 ± 0.08
UniProt Q9UDY8 and related entries	0.998 ± 0.032	0.955 ± 0.038
FARSA (UniProt Q9Y285)	1.03 ± 0.025	1.02 ± 0.055
UniProt Q9Y2U5	0.993 ± 0.038	1.02 ± 0.013
UniProt Q9UPU7 and related entries	1.01 ± 0.026	1.03 ± 0.092
MINPP1 (UniProt Q9UNW1)	1 ± 0.047	1.02 ± 0.044
UniProt Q9UL15 and related entries	1.018 ± 0.007	1 ± 0.015
BCS1L (UniProt Q9Y276)	1.02 ± 0.044	0.969 ± 0.046
UniProt Q9Y282 and related entries	1 ± 0.025	1.02 ± 0.021
CFL2 (UniProt Q9Y281)	1.01 ± 0.053	1.02 ± 0.051

Target	NP40-soluble protein abundance (concentration: 0.1mM)	NP40-soluble protein abundance (concentration: 0.5mM)
UniProt Q9UPN7	1.05 ± 0.037	0.991 ± 0.035
UniProt Q9UJ68 and related entries	1.01 ± 0.1	1.01 ± 0.054
UniProt Q9Y222 and related entries	0.976 ± 0.011	0.99 ± 0.031
UniProt Q9Y2Q5 and related entries	1.05 ± 0.025	0.993 ± 0.057
UniProt Q9UIG0 and related entries	1.03 ± 0.039	1.02 ± 0.012
ASF1A (UniProt Q9Y294)	0.978 ± 0.046	0.963 ± 0.14
UniProt Q9UKX7 and related entries	1 ± 0.012	1.04 ± 0.017
UniProt Q9Y312 and related entries	0.971 ± 0.028	0.935 ± 0.061
COPS7A (UniProt Q9UBW8)	0.984 ± 0.047	1 ± 0.018
DICER1 (UniProt Q9UPY3)	1.01 ± 0.015	0.988 ± 0.037
UniProt Q9Y291 and related entries	1.07 ± 0.03	1.04 ± 0.037
FIS1 (UniProt Q9Y3D6)	0.985 ± 0.034	0.996 ± 0.09
MAGED2 (UniProt Q9UNF1)	0.989 ± 0.026	0.991 ± 0.034
GNPTG (UniProt Q9UJJ9)	0.95 ± 0.026	0.989 ± 0.016
UniProt Q9Y259 and related entries	1 ± 0.011	0.993 ± 0.044
MRPS2 (UniProt Q9Y399)	1.03 ± 0.043	1.01 ± 0.044
TPX2 (UniProt Q9ULW0)	0.998 ± 0.0042	1.05 ± 0.048
UniProt Q9Y2I1 and related entries	0.966 ± 0.03	0.974 ± 0.022
YEATS2 (UniProt Q9ULM3)	0.984 ± 0.013	0.9863 ± 0.0076
NOL7 (UniProt Q9UMY1)	0.972 ± 0.032	1.02 ± 0.035
UniProt Q9UPP1 and related entries	1 ± 0.022	0.984 ± 0.053
TRAF3IP3 (UniProt Q9Y228)	1 ± 0.049	0.992 ± 0.077
UniProt Q9UNQ2	1.02 ± 0.032	0.983 ± 0.042
RAB22A (UniProt Q9UL26)	1.01 ± 0.013	1.02 ± 0.033
NENF (UniProt Q9UMX5)	0.927 ± 0.017	0.97 ± 0.074
CNOT7 (UniProt Q9UIV1)	1.01 ± 0.045	0.974 ± 0.017
